Where “and” joins values, the source holds several entries; their conditions need not be identical. Equal entries are not always repeated. The campaign covered roughly 400,000 compounds. About 5,500 (1.4%) were called active. Inconclusive results, whose numbers are uncertain, are shown with a selection of clear calls. Calls follow the shape of the dose curve; as a rule, active = well fitted cell-killing curve with a large enough effect; inconclusive = small, poorly fitted or top-dose-only effect, or effect the other way; inactive = flat fitted curve, though single readings scatter. Where the call is inconclusive, the potency comes from a doubtful curve fit.
Assay: qHTS assay for MDR1-selective chemotherapeutics: Primary screen using the parental adenocarcinoma cell KB-3-1; also: nearly all actives have a fitted effect of over 60% in size
Settings: KB-3-1 viability, CellTiter-Glo ATP luminescence, 72 h; activity change, negative = cytotoxic: at 46.1 µM (top of the series)
Procedure, shortened: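 Cytotoxicity in the drug-sensitive parental line KB-3-1 was scored as loss of CellTiter-Glo luminescence following 72 h incubation with compound. Values come from curve fitting of normalized concentration-response data.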
% is scaled to controls: 0 for no effect and ±100 for the full control effect; potency is read from the fitted curve at half-maximal effect.

SMILES | Potency | activity change, negative = cytotoxic
CN(C)CCCN(C(=O)c1ccc2c(c1)CCCC2)c1nc2cc3c(cc2s1)OCO3 | inconclusive: 16.4 µM [cytotoxic, partial curve, poor fit] | –
CC(C)c1ccc(NC(=O)CN2C(=O)C3(SCC(=O)N3c3ccc(F)cc3)c3ccccc32)cc1 (configuration not stated) | inconclusive: 16.4 µM [cytotoxic, single point] | –
COc1cc(C=NO)nc(-c2ccccn2)c1 | inconclusive: 1.3 µM [cytotoxic, full curve] | –
COc1ccc(-c2ccc(OC)c([C@H]3[C@H]4C=CC[C@@H](C)[C@@H]4C(=O)N3Cc3ccccc3)c2)cc1OC | inactive | –
Cc1ccc(C(=O)NCc2ccc(Cl)cc2)cc1S(=O)(=O)N1CCCCC1 | inconclusive: 20.6 µM [cytotoxic, single point] | –
CCC(C)Sc1cccc(-c2nc3ccc(C)cn3c2NCc2ccccc2)c1 (configuration not stated) | inconclusive: 29.1 µM [cytotoxic, single point] and inconclusive: 32.6 µM [cytotoxic, partial curve, poor fit] | –
CC(C)CC(NC(=O)c1ccc(Cl)cc1)C(=O)OCC(=O)c1ccc2c(c1)NC(=O)CO2 (configuration not stated) | active: 7.31 µM | –
Cc1ccc(-c2[nH]ncc2CNCCc2cnn(-c3ccccc3)c2)cc1C | inconclusive: 14.6 µM [cytotoxic, partial curve, poor fit] | –
CCOc1ccccc1CNC(=O)CCc1cn(C)c2ccccc12 | – | inconclusive: -8.38%
O=C(NC1CCCC1)c1ccc2c(c1)N(Cc1ccccc1)CCS2 | inconclusive: 20.6 µM [cytotoxic, single point] | –
CN1CCN(NC(=O)Nc2ccc(Br)cc2)CC1 | inconclusive: 0.731 µM [cytotoxic, full curve] | –
CCSC1=NC2(CCN(C(=O)NC3CCCCC3)CC2)N=C1c1ccc(OC)cc1 | inactive | –
Cc1sc2nc(SCC(=O)NCCOCCO)n(C)c(=O)c2c1C | inconclusive: 29.1 µM [rising, partial curve, poor fit] | –
Cc1ccccc1-c1nnn(CC(=O)c2ccc(S(=O)(=O)N3CCCC3)cc2)n1 | inconclusive: 18.4 µM [cytotoxic, single point] | –
CCc1c(C)sc(NC(=O)/C=C/c2ccc3c(c2)OCO3)c1C(=O)OC | inconclusive: 16.4 µM [cytotoxic, partial curve, poor fit] | –
CCOC(=O)C1C(=O)CC(C)(O)C(C(=O)OCC)C1c1ccc([N+](=O)[O-])cc1 (configuration not stated) | inactive | –
CCN(CC(=O)NCc1cccs1)C(=O)CCCOc1ccc(C(C)(C)C)cc1 | inconclusive: 20.6 µM [cytotoxic, single point] | –
COc1ccc(-c2ccc3ncnc(N(C)Cc4csc(C)n4)c3c2)cc1OC | inconclusive: 32.6 µM [cytotoxic, single point] | –
CCOC(=O)c1nc2ccc(C)cc2c2c1C1CC(c3c(Cl)cccc31)N2C(=O)OCc1ccccc1 (configuration not stated) | inconclusive: 18.4 µM [cytotoxic, single point] | –
COc1ccc(-c2cc(=O)oc3c(C)c(OCC(=O)N(C)C)ccc23)cc1 | inconclusive: 23.1 µM [rising, partial curve, poor fit] | –
COC(=O)C1=C(C)Nc2sc(C(N)=O)c(N)c2C1c1ccncc1 (configuration not stated) | inactive | –

SMILES | Potency | activity change, negative = cytotoxic
CCn1c2ccccc2c2cc(Nc3cc(C)nc4ncnn34)ccc21 | active: 0.231 µM | –
CC(=O)Nc1ccc(S(=O)(=O)NC2(C(F)(F)F)C(=O)Nc3c2c(=O)[nH]c(=O)n3-c2ccc(C)cc2)cc1 (configuration not stated) | inconclusive: 29.1 µM [rising, single point] | –
O=c1nc(/C=C/c2ccc(O)c(O)c2)oc2ccccc12 | inactive | –
O=C(Nc1cccc(O)c1)c1ccc([N+](=O)[O-])cc1Cl | inconclusive: 3.66 µM [rising, partial curve] | –
CCCNC(=O)c1cc(C2CCCCN2C(=O)c2cc(C(C)(C)C)nn2C)on1 (configuration not stated) | inconclusive: 29.1 µM [cytotoxic, partial curve, poor fit] | –
COC(=O)c1ccccc1NC(=O)CN(c1ccc(OC)cc1)S(C)(=O)=O | inconclusive: 29.1 µM [cytotoxic, single point] | –
CC(O)c1n(C)c(Cl)c[n+]1C (configuration not stated) | inactive | –
O=C(Nc1nc2ccc(S(=O)(=O)N3CCCCC3)cc2s1)C1CCCO1 (configuration not stated) | inconclusive: 29.1 µM [cytotoxic, single point] | –
CS(=O)(=O)c1cnc(-c2ccccc2)nc1-c1ccc(Cl)c(Cl)c1 | inactive | –
Cc1ccc(O)c(C(=O)CC(=O)c2cccc(F)c2)c1 | inconclusive: 29.1 µM [cytotoxic, single point] | –
COc1ccc(-c2csc(NC(=S)NC(=O)c3ccco3)n2)cc1Br | inconclusive: 29.1 µM [cytotoxic, single point] | –
Cc1cc(C(F)(F)F)c(C#N)c(SCC(=O)NC2CC2)n1 | inconclusive: 0.0082 µM [rising, full curve] | –
O=c1[nH]c(C2CCN(S(=O)(=O)/C=C/c3ccccc3)CC2)nc2c1nnn2Cc1ccc(F)cc1 | inconclusive: 29.1 µM [cytotoxic, single point] | –
COc1cccc(-n2c(C)nc3c(cnn3-c3ccc(C)c(C)c3)c2=O)c1 | inconclusive: 29.1 µM [cytotoxic, single point] | –
COc1ccc(N2CCN(S(=O)(=O)c3ccc4oc(=O)ccc4c3)CC2)cc1 | inconclusive: 10.3 µM [rising, partial curve, poor fit] | –
CC(C)(C)C1CCc2c(sc3ncn(N)c(=N)c23)C1 (configuration not stated) | inconclusive: 11.6 µM [cytotoxic, partial curve] | –
CCC(=O)N1c2ccc(S(=O)(=O)CCC(=O)NCc3ccc(OC)cc3)cc2CC1C (configuration not stated) | inactive | –
COc1ccc(OC)c(/C=C/c2ccccc2)c1 | inconclusive: 29.1 µM [rising, single point] | –
CCN(CC)S(=O)(=O)c1cc(C(=O)Nc2nncs2)c(Cl)cc1Cl | inactive | –
CC(C)C(C(=O)NC1CCCC1)N1CCC(O)(c2ccc(Cl)cc2)CC1 (configuration not stated) | inactive | –
CC(=O)Nc1ccc(NC(=S)NC(=O)c2oc3ccccc3c2C)cc1 | inconclusive: 32.6 µM [cytotoxic, single point] | –

Whole records, looked up by structure:
COc1ccc(N2CCN(S(=O)(=O)c3ccc4oc(=O)ccc4c3)CC2)cc1 as listed: Potency: inconclusive: 10.3 µM [rising, partial curve, poor fit]
CCC(=O)N1c2ccc(S(=O)(=O)CCC(=O)NCc3ccc(OC)cc3)cc2CC1C (configuration not stated) as listed: Potency: inactive
